PubChem BioAssay AID1794845 (National Center for Advancing Translational Sciences (NCATS), 2023)
The campaign covered roughly 6,900 compounds. Fewer than 10 were called active. Calls come from the whole dose curve; as a rule, active = well fitted curve in the direction sought with a large enough effect; inconclusive = small, poorly fitted or top-dose-only effect, or another doubt; inactive = no such curve, though single readings can be large or run the other way. This is one part of the list.

Amino acid sequences for entries named in this document (tags omitted). A change or cut given only in a name is not applied to a line headed by its entry.
UniProt C7C422: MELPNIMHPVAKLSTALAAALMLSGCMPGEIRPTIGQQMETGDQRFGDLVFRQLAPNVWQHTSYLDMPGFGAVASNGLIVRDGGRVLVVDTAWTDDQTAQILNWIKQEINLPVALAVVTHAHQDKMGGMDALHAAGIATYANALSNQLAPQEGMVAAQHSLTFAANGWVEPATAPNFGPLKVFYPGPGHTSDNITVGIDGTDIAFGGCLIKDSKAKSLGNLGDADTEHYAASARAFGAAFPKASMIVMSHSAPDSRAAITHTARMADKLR

target: Metallo-beta-lactamase type 2 (Klebsiella pneumoniae) (UniProt C7C422); assay: qHTS to identify inhibitors of the New Delhi Metallo-beta-lactamase (NDM): primary screen against the NCATS Gemini Collection; settings: NDM-1 enzyme, meropenem hydrolysis, absorbance 300 nm; at 38.4 µM (top of the series) unless noted; note: % of control where 0% means no effect
How it was run: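 NDM-1 at 2 nM final in 50 mM HEPES pH 7.0, 1 uM ZnSO4, 0.01% Tween20, preincubated >30 min with compound. Meropenem 50 uM final added; absorbance at 300 nm after 30 min.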

Activity % (negative = inhibition), inactive:
Cc1ccc(C2=NC3(CCN(C(=O)c4n[nH]c5c4CCCC5)CC3)ON2)cc1 58.1%
CCOC(=O)N1CCN(Cc2nccn2CCOC)CC1 -1.12%
O=C1NC2(CCN(CC3CCCCC3)CC2)COc2ccccc21 2.33% [at 57.5 µM]
CCCCc1ccc(CN2C[C@@H]3CC[C@H](C2)N(Cc2ccccn2)C3=O)s1 38.8%
CCC(CC)C(=O)NCc1cccnc1Oc1cccc(C(F)(F)F)c1 -3.8%
CCn1c(=O)c2ccnn2c2ccc(C(=O)O)cc21 4.34%
FC(F)(F)c1ccc(-c2noc([C@@H]3Cc4nc[nH]c4CN3Cc3cc4ccccc4o3)n2)cc1 38.7%
COc1ccc(-c2cc(C[C@H]3CNCC[C@H]3CC(=O)N3CCOCC3)no2)cc1 -1.43% [at 57.5 µM]
CCS(=O)(=O)Nc1ccc(C(=O)NCc2cc3n(n2)CCNC3)cc1 -1.65%
COc1cc(F)ccc1-c1cc(-c2ccc(=O)[nH]c2)c2cncn2c1 40.2% [at 57.5 µM]
Cc1nc(C2CC(O)C2)cc(N2CCN(c3cnn(C)c(=O)c3)CC2)n1 (stereo unspecified) 9.96%
O=C(c1c(OCC2CC2)cc(=O)n2c1CCOCC2)N1CCc2ccccc2C1 12%
CCCNC(=O)NCC1c2cc(OC)c(OC)cc2CCN1C(=O)NCC (stereo unspecified) 0.348%
COCC1CN(C)CC12CCN(Cc1sccc1C)CC2 (stereo unspecified) -2.49%
CN(C)[C@@H]1CO[C@H](CNC(=O)c2ccncc2)[C@H]1O -3.86% [at 77.1 µM]
CN(C)S(=O)(=O)N1CCCC(c2nc(-c3ccccc3)no2)CCNC(=O)CC1 (stereo unspecified) 1.56%
COC(=O)c1nc(NC(=O)Cn2nc3c(cc2=O)CCCC3)sc1C(C)C 17.5%
O=C(NC1CCOC2(CCOCC2)C1)c1ccc(-c2cnco2)cc1 (stereo unspecified) 19.1%
Cc1ccn(CC(=O)NCc2cccnc2Oc2ccccc2)n1 0.635%
CC1(C)[C@H]2CC[C@@H](CNC(=O)C3CC3)[C@@H]1C2 -2.25% [at 77.1 µM]
O=C(Cn1nc2n(c1=O)CCCC2)NCc1ccc(F)cc1 10.2%
O=C(Cn1nc2n(c1=O)CCCC2)NCCc1ccc(Cl)cc1 4.64%
Cc1cc(C(=O)N2CCOC(Cc3cccc(C(F)(F)F)c3)C2)nn1C (stereo unspecified) 2.33%
CC1=NOC2(CCN(C(=O)c3ccccc3)CC2)C1 0.0866% [at 57.5 µM]
O=C1CCC(CCC(=O)N2CCC(c3ccc(F)cc3)C2)(Cc2ccc3ccccc3c2)N1 (stereo unspecified) -2.29%
Cc1ccccc1CN1Cc2nc(-c3ccccc3)ccc2OCC1=O 2.8% [at 57.5 µM]
CN1CCN(c2nc3c(c(=O)[nH]2)CCN(Cc2cn[nH]c2-c2ccc(F)cc2)CC3)CC1 0.562%
CC(C)NC(=O)N1CC2ON=C(C(=O)N3CCOCC3)C2C1 (stereo unspecified) -4.63%
CC1(CNC(=O)c2n[nH]c3ccccc23)CCOCC1 -3.02%
Cc1ccc(CN2C[C@]34C=C[C@H](O3)C(C(=O)N(C)Cc3ccsc3)C4C2=O)cc1C (stereo partly specified) 7.02%
COc1ccc2cc(C(=O)N3CC4CC(C3)[C@H]3CCCC(=O)N3C4)[nH]c2c1 (stereo partly specified) 6.69%
O=C1CCC2(CCN1Cc1ccccc1)CCN(C(=O)c1ccccc1F)CC2 -3.97%
CCCC(C)c1c(-c2ccccc2)ncn1CCNC(C)=O (stereo unspecified) -12.7%
CNC(=O)c1cc(C)nc2onc(C3CCN(C(=O)C4CCCC4)CC3)c12 44.3%
O=C1[C@@H]2C[C@@H](CN2Cc2ccc3c(c2)OCO3)Oc2ccccc2N1CC1CC1 -0.153% [at 57.5 µM]
O=C(c1cc(-c2ccsc2)c2nncn2n1)N1CCN(Cc2ccccc2)CC1 5%
Cc1sc2ccn(CC(C)C)c(=O)c2c1C(=O)N1CCCCC1 15.1%
CCc1cccc2c(C(CC(=O)N3CCCC3)c3cccc([N+](=O)[O-])c3)c[nH]c12 (stereo unspecified) 12.5%
O=C(NCc1ccc(Cl)nc1)c1cn2c(n1)CN(C(=O)c1cccnc1)CC2 0.44%
CCNc1ncc(C(=O)N[C@H](c2cnn(C)c2)C2CC(O)C2)cn1 (stereo partly specified) 0.953%
Cn1cc(CCNC(=O)c2ccc3oc(-c4cccc(F)c4)nc3c2)cn1 -1.23%
COc1cccc(N2C(=O)NC(=NC3CCCC3)C23CCN([S+](=O)([O-])c2cccs2)C3)c1 (stereo unspecified) 0.0013%
CC(C)c1nc2c(NC(=O)Nc3cccc(Cl)c3)cccn2n1 -3.16%
O=C(NCC1CC1)C1CN(Cc2ccccc2)C(=O)N1 (stereo unspecified) 59.1% [at 57.5 µM]
COc1ccc(-c2nc3c(c(=O)[nH]2)CCN(C(=O)CSc2ccccc2)C3)cc1 7.61%
Cc1nnc2ccc(N3CCC(NC(=O)C(C)C)CC3)nn12 12.7% [at 57.5 µM]
O=C(COc1ccc(-c2nnc3n2CCCC3)cc1)NCc1ccccc1Br 4.26%
O=C(CCn1cncn1)N1CCc2ncnc(N3CC=CC3)c2CC1 -0.0366%
COc1ccc(CN2CC3(CCN(S(=O)(=O)c4c(C)nn(C)c4C)CC3)C2=O)cc1 0.469%
CCN1C(=O)CN(C(=O)CC(C)C)CC12CCOCC2 5.72%
O=C(C1CCN([S+](=O)([O-])c2cccs2)C1)N1CCC(c2nc3ncccc3[nH]2)CC1 (stereo unspecified) 0.749%
O=C(NCc1nnc2c(-c3nc(C4CC4)no3)cccn12)C1CC1 2.02%
Cc1nnc(-c2cc(-c3ccsc3)ccn2)n1-c1ccccc1 20.3% [at 57.5 µM]
CCNC(=O)N1CC(C(=O)NCc2ccco2)CC(c2ccc(OC)c(OC)c2)C1 (stereo unspecified) 0.709%
COc1ccccc1CN[C@H]1[C@H](O)[C@@H](N2CCN(c3ccccc3OC)CC2)[C@@H]2OC[C@H]1O2 -5.23%
COc1cccc(C(C)N(C)Cc2nc(-c3cccs3)no2)c1 (stereo unspecified) -5.01%
c1cncc(CN2CC(N3CCc4ccccc43)C2)c1 3.81% [at 57.5 µM]
COCCCn1c(C)cc(C(=O)N[C@@H]2CN(C)C[C@H]2CN(C)C)c1C 2.71%
COc1ccc(-c2ccc3nc(-c4cccc(F)c4)oc3c2)c(OC)c1OC 7.5%
Cc1cccc(OC2(C(=O)O)CCN(c3cncc(C(N)=O)n3)CC2)c1 1.97%
CC(C)CCN(C1CCOCC1)C1CCN(Cc2cccnc2)CC1 9.22%
CNc1nc(C(=O)N2CCc3nc(-c4ccccc4)[nH]c3C2)cs1 13.6%
Cc1noc(C)c1C(=O)N(C)C1CCc2nnc(C)n2CC1 (stereo unspecified) -6.56%
CNC(=O)[C@@H]1CCCC[C@@H]1C(=O)N1CCn2nc(Cc3ccccc3)cc2C1 5.96%
COc1ccc(CCNC(=O)c2c(C)noc2-c2cccs2)cc1OC 20.6%
O=C(c1nccc2ccccc12)N1CCC2(CC1)CC(O)CCO2 (stereo unspecified) 2.48%
CC(C)NS(=O)(=O)c1ccc2c(c1)nc(-c1ccc(CO)o1)n2C(C)C 34.2%
O=C1CC2(CCN(CC3CCCCC3)CC2)Oc2ccccc2N1c1ccccc1 15.1%
O=C(CCC1CCCN(Cc2ccc(-c3ccccc3)cc2)C1)N1CCOCC1 (stereo unspecified) -0.619%
COCCN1CC2CN(C(=O)c3ccc(Cc4c(C)noc4C)o3)CC(C1)O2 24.8%
COCC(=O)N[C@H]1C[C@@H](CO)N(Cc2ccc(Br)o2)C1 7.75%
O=C(c1cccc(OC2CN(C3CCCCCC3)C2)c1)N1CCCC1 14.1%
CC(C)NC(=O)N1CCNC[C@@H]1C(=O)N[C@@H](CC1CCCCC1)C(N)=O 2.75% [at 57.5 µM]
C=CCC1(C(=O)O)CCCN(C(=O)c2cnn3c2CCCC3)C1 (stereo unspecified) 3.76%
CCCc1nn(-c2cccc(C)c2)c(=O)n1CC(=O)NCc1ccc(C)o1 -1.66%
COc1ccc(C(=O)N2CCOC[C@H](Oc3cccnc3)C2)cc1 4.61% [at 57.5 µM]
Cc1ccc(CN2CCCCCNC(=O)[C@@H]3CCC[C@@H]32)s1 3.28%
N#Cc1ccc(C(=O)N2CCN3CCS(=O)(=O)N(C4CC4)C(=O)C3C2)cc1 (stereo unspecified) 2.59%
COC(=O)NC1CCN(c2ccc3nnc(-c4ccccc4)n3n2)C1 (stereo unspecified) 2%
CC(C)(Oc1nn(CC2CCOCC2)c2ccccc12)C(=O)NCc1ccncc1 6.15% [at 57.5 µM]
c1cncc(-c2cc(-c3cccc(N4CCOCC4)c3)cn3cncc23)c1 10.5% [at 57.5 µM]
CC(C)(C)c1ccc(-c2cc(C[C@H]3CNCC[C@H]3CC(=O)N3CCOCC3)no2)cc1 -0.949% [at 57.5 µM]
COc1ncccc1CNC[C@H]1O[C@@H]2C[C@@H](CC(=O)N3CCOCC3)O[C@@H]2[C@@H]1O 9.82% [at 57.5 µM]
CC(C)S(=O)(=O)N(C)Cc1cccc(N2CCN(C(=O)c3c(Cl)cccc3Cl)CC2)c1F -0.563%
Cn1ccnc1CNC[C@H]1Cn2cc(-c3ccccc3)nc2CO1 44.2% [at 57.5 µM]
O=S(=O)(c1ccccc1)N1CCCC(CN2CCCC2)CC1 (stereo unspecified) 14.1%

Taken from the listing for reference:
Activity % (negative = inhibition), inactive:
CN(C)S(=O)(=O)N1CCCC(c2nc(-c3ccccc3)no2)CCNC(=O)CC1 (stereo unspecified) 1.56%
COC(=O)c1nc(NC(=O)Cn2nc3c(cc2=O)CCCC3)sc1C(C)C 17.5%
O=C(NC1CCOC2(CCOCC2)C1)c1ccc(-c2cnco2)cc1 (stereo unspecified) 19.1%
